The target in this assay is T1, PolD2, recombinant (M. smegmatis) (UniProt A0QQ21).
T1 sequence: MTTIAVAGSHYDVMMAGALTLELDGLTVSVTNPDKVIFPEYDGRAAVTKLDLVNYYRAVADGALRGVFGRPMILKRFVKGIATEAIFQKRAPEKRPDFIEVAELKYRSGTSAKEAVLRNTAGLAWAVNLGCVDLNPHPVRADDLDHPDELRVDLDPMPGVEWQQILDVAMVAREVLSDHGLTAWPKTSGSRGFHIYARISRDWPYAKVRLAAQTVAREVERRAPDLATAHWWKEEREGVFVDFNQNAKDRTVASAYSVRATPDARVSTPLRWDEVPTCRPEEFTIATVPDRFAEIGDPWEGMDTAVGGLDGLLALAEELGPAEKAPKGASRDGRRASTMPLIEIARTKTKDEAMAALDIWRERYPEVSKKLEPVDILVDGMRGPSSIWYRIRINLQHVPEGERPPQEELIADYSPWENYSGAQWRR
Description: far-Western, overlay or dot blot; recombinant proteins slot-blotted on a membrane (3 μg of the possible interactors, 50 ng of the probed protein), blocked in TBS, 0.05% Tween 20, 5% milk; incubated with 5 μg ml^−1 Prim-PolC or LigC1; detected with Prim-PolC- or LigC1-specific antibodies; both purified.

These are yes or no findings as the source states them, for the method shown. Some results given as binding are weak or reduced against the parent protein; the word gives no strength. Where a sequence is shown, tags or fusion partners need not be part of it.

Experimental findings from PMC5663958, “DNA Ligase C and Prim-PolC participate in base excision repair in mycobacteria” (Nature Communications, 2017) are described below.

B1: DNA ligase C1 (LigC1, msmeg_6302), recombinant, His-tagged construct (enzyme, UniProt A0R5T2 1-348)
chain: MDLPVQPPIEPMLAKAQVKVPDEAGVWSYEPKWDGFRALVFRDGDDVVLQSRNGKDLGRYFPELLDALRDELVEKCVLDGEVVVPRDIAGRVRLDWESLSQRIHPAASRIKMLAEQTPAHFIGFDALALGDRSLLKEPFRVRREALAEAVDNKRWCHVTRTSEDPALGTEWLKTFEGAGLDGVIAKRLDGPYLPGKREMVKVKHHRDADCVAMGYRIHKSGDGIGSILLGLYRDDGELQMVGGAASFTAKDRIKLLAELEPLREGDEMREGDPSRWNSAADKRWTPLRPEKVCEVAYDQMEGNSVEGRRFRHAVKFLRWRPDREPSSCTFDQLDTPLNYDLYDVLEEQ
Consider B1, for which the binding result is reported as “binds”.
